Measurements: paper PMC8881573, “Inhibition of SRP-dependent protein secretion by the bacterial alarmone (p)ppGpp” (Nature Communications, 2022)
No constants are given. Whether binding was seen depends on the method and setting. Some entries that bind do so weakly or less than the wild type.

By UniProt entry, the sequences of proteins in these tests, tags left out.
UniProt P37105: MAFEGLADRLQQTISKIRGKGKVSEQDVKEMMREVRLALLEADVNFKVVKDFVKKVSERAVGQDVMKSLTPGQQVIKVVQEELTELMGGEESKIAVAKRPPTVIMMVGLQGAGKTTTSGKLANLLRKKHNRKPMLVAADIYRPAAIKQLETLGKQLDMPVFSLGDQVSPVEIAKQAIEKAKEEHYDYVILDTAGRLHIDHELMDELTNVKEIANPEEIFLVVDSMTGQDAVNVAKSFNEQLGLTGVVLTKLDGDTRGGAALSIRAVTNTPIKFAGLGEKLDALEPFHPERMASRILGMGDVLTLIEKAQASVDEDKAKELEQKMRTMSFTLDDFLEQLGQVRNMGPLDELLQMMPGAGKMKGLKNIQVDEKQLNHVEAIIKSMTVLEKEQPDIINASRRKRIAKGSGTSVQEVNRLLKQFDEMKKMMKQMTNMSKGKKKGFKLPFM

Molecular target: MifM nascent chain of the MifM-stalled RNC (B. subtilis) (UniProt Q7WY64)
Experiment: cryo-EM structure; (Bs)SRP pre-incubated with pppGpp, tenfold molar excess over MifM-stalled RNCs, 10 min at room temperature; both purified

recombinant (Bs)SRP (Ffh and 6S RNA) (from UniProt P37105 1-446)
binding: binds
